Reference: PubChem BioAssay AID504793 (Drosophila RNAi Screening Center, 2011)

Purpose: 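Knock-downs allowing continued mitosis even though DNA is damaged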 (primary screen)
Cell system: Drosophila S2R+ cells
Knock-down reagent: long dsRNA against Drosophila genes, about 0.25 µg dsRNA per well
Duration: 4 days of dsRNA, then 4 hours of drug before read-out
Challenge: doxorubicin 0.5 µM for 4 hours to cause double-strand breaks, in cells also given a low, harmless dose of dsRNA against nbs to sensitise the assay
Detection: 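Mitotic index as the number of phospho-histone H3-positive cells in each well following doxorubicin, given as raw counts without normalisation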
Scale: mitotic cells: higher = more cells in mitosis, weaker G2 arrest
Call rule: 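a call needs confirmation in secondary tests, with other dsRNAs and a check of mitotic timing without damage, not just a high primary count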
Meaning of the calls: active = confirmed in follow-up tests; inactive = not confirmed
The deposit covers about 23,000 reagents; shown is an unselected part of those that have a named target and a result. In the full data, 62 (0.27%) got an active call. 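Calls come from follow-up tests whose scores are not deposited, so confirmed genes may have low counts here; counts are not normalised per plate.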 Raw values are not corrected between plates. The numbers tell different reagents against one gene apart. A plus sign joins genes that one reagent is predicted to hit.

no.	Target gene	reagent no.	mitotic cells, replicate 1	Outcome
1	Rabex-5	1	5	inactive
2	Rabex-5	2	4	inactive
3	PlexB	1	10	inactive
4	CG11656	1	3	inactive
5	CG11656	2	1	inactive
6	GC1	1	5	inactive
7	GC1	2	8	inactive
8	CG32160 (retired record)	1	29	inactive
9	Cpr51A	1	5	inactive
10	UGP	1	13	inactive
11	CG9992	1	10	inactive
12	CG9992	2	8	inactive
13	mthl4	1	10	inactive
14	Srp68	1	6	inactive
15	Srp68	2	5	inactive
16	CARPB	1	7	inactive
17	CARPB	2	15	inactive
18	CG34135 + Nasp	1	5	inactive
19	CG34347	1	14	inactive
20	CG34347	2	10	inactive
21	CG34347	3	4	inactive
22	CG13114	1	1	inactive
23	pAbp	1	2	inactive
24	AGO3	1	12	inactive
25	Mettl2	1	5	inactive
26	Mettl2	2	8	inactive
27	Prp31	1	5	inactive

Ordered by “mitotic cells, replicate 1” (lowest first): 7 of the entries above.
Target gene	reagent no.	mitotic cells, replicate 1	Outcome
GC1	1	5	inactive
Cpr51A	1	5	inactive
GC1	2	8	inactive
CG9992	2	8	inactive
CG9992	1	10	inactive
UGP	1	13	inactive
CG32160 (retired record)	1	29	inactive

More results:
no.	Target gene	reagent no.	mitotic cells, replicate 1	Outcome
28	CG32683	1	9	inactive
29	CG32683	2	11	inactive
30	CG32683	3	8	inactive
31	CG32683	4	9	inactive
32	Or71a	1	5	inactive
33	Rpn12R	1	9	inactive
34	CG31538	1	7	inactive
35	CG3558	1	6	inactive
36	CG3558	2	6	inactive
37	Ir48b	1	2	inactive
38	ScsbetaG	1	3	inactive
39	ScsbetaG	2	8	inactive
40	CG31275	1	3	inactive
41	tj	1	4	inactive
42	tj	2	12	inactive
43	CG9016	1	7	inactive
44	CG9016	2	11	inactive
45	CG5861	1	3	inactive
